Measurements taken from paper PMC4604347, “Local regulation of the Srs2 helicase by the SUMO-like domain protein Esc2 promotes recombination at sites of stalled replication”.
These are yes or no findings as the source states them, for the method shown. For some assays here: Binding seen in cells or lysates may run through a third protein. Some results given as binding are weak or reduced against the parent protein; the word gives no strength. For some assays here: Where a sequence is shown, tags or fusion partners need not be part of it. Blank lines part the entries; values can stand above or below the molecule they belong to.

The chains behind the UniProt entries cited, without tags or fusion partners. Where a name states a change or a piece, a line headed by the entry shows the natural chain unless it says otherwise.
UniProt P12954: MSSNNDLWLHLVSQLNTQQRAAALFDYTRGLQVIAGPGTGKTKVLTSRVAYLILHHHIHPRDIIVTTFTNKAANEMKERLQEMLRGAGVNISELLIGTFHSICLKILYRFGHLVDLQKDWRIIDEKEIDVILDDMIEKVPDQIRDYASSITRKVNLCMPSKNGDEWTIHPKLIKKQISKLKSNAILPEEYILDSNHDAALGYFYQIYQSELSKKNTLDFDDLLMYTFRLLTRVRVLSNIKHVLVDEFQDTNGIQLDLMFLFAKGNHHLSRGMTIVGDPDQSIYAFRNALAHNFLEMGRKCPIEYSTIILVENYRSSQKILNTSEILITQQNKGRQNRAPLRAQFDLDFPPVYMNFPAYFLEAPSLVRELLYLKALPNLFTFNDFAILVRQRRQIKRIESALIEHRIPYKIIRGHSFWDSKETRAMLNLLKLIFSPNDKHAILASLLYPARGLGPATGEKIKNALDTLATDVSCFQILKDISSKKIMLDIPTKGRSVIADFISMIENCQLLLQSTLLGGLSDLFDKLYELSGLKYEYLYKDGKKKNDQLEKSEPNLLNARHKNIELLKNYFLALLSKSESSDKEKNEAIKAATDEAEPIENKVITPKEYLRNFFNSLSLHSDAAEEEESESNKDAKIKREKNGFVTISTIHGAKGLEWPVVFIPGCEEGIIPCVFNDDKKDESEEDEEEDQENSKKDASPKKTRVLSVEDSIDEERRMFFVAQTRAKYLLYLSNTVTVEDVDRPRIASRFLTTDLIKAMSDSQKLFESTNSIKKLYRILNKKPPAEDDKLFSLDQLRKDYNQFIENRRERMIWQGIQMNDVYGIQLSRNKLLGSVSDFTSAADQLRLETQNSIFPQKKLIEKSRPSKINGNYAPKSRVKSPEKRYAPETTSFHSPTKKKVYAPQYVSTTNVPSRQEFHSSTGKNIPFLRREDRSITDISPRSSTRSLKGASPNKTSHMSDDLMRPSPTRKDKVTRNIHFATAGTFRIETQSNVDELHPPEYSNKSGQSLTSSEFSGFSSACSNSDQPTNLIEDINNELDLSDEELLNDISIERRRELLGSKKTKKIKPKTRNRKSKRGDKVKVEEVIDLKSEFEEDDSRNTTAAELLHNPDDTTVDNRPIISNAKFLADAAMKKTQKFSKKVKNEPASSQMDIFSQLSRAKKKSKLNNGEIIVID
UniProt P15873: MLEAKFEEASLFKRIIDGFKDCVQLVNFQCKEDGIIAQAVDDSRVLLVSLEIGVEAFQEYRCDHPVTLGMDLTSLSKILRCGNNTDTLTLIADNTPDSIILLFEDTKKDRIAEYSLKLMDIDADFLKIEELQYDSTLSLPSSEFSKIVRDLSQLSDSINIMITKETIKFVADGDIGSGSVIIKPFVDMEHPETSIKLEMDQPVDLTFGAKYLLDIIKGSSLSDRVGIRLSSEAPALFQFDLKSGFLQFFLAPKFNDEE

Experiments:
GST-Esc2 (S. cerevisiae) [1] = target: T1, GST-Esc2 (S. cerevisiae) (UniProt Q06340); experiment: pull-down; in vitro pull-down: 3 μg His-tagged Srs2 mixed with 3 μg GST-Esc2 in the presence of glutathione beads; supernatant and SDS eluate on SDS-PAGE, Coomassie staining; both purified
T1 sequence: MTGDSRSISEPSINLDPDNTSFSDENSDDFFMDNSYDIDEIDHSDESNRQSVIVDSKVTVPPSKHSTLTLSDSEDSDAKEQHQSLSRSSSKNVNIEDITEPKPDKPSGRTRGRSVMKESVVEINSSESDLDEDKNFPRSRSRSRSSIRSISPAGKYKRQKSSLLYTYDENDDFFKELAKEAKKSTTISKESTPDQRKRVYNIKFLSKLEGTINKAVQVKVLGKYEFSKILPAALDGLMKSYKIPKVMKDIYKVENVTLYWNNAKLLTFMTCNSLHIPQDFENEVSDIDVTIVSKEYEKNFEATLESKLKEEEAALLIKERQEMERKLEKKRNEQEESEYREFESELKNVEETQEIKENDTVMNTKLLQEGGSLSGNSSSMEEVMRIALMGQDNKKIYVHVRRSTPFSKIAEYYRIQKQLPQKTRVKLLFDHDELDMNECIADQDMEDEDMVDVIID

[2] = target: T2, Esc2 (two-hybrid fusion, full-length) (S. cerevisiae) (UniProt Q06340); experiment: two-hybrid; yeast two-hybrid, as in Sollier et al. 2009
T2 sequence: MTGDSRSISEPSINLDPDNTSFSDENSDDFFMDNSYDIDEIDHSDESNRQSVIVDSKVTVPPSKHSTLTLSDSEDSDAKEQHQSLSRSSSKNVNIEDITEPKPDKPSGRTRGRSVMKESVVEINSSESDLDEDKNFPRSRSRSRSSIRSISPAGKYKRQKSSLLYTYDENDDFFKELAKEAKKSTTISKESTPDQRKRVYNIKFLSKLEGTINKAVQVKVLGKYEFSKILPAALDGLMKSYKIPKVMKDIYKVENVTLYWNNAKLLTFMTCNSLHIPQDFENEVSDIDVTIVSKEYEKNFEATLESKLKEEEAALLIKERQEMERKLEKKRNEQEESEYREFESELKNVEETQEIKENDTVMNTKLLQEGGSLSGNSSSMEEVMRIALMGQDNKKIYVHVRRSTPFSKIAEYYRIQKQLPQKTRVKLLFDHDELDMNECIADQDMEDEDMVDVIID

GST-Esc2 (S. cerevisiae) [3] = target: T1, GST-Esc2 (S. cerevisiae); experiment: pull-down; 'in vivo pull-down': purified recombinant GST-Esc2 (wild type or mutants) with total yeast cell lysate, with or without ethidium bromide; complexes on the beads analysed by protein blotting; only the target purified
GST-Esc2 (S. cerevisiae) [4] = target: T1, GST-Esc2 (S. cerevisiae); experiment: as above; remark: listed apart in the source
[5] = target: His-tagged Srs2 (S. cerevisiae) (UniProt P12954); experiment: pull-down; in vitro pull-down of Esc2^Δ154–198 with Srs2 (Supplemental Fig. S5A); beads not told; both purified
[6] = target: His-tagged Srs2 (S. cerevisiae) (UniProt P12954); experiment: pull-down; in vitro pull-down: 3 μg His-tagged Srs2 mixed with 3 μg Esc2 in the presence of Ni-NTA beads; supernatant and SDS eluate on SDS-PAGE, Coomassie staining; both purified

- binding (GST-Esc2 (S. cerevisiae) [1]): binds
Molecule: His-tagged Srs2 (from UniProt P12954 1-1174)

- binding [2]: no binding
Molecule: PCNA (two-hybrid fusion) (from UniProt P15873 1-258)

- binding [2]: binds
Molecule: Srs2 (two-hybrid fusion) (from UniProt P12954 1-1174)

- binding [2]: binds
Molecule: Srs2 fragment 909–1174 (two-hybrid fusion) (from UniProt P12954 909-1174) (domain or fragment)

- binding [2]: binds
Molecule: Srs2 fragment 1036–1174 (two-hybrid fusion) (from UniProt P12954 1036-1174) (domain or fragment)

- binding (GST-Esc2 (S. cerevisiae) [3]): no binding
Molecule: endogenous PCNA (from UniProt P15873 1-258)

- binding (GST-Esc2 (S. cerevisiae) [3]): binds
Molecule: endogenous Srs2 (from UniProt P12954 1-1174)

- binding (GST-Esc2 (S. cerevisiae) [4]): binds
B1: Slx5 (protein, UniProt P32828 1-619)
chain: MHSDTNGRTKSNNSPSDNNPNETVILIDSDKEEDASIREANLPVRLYPDRRVGRRRDALNRFVRSDSRSRNSQRTHITASSERPDFQANNDDITIIREVGRFFGDDGPIDPSAHYVDLDQEPGSETLETPRTIQVDNTNGYLNDNGNNNESDDGLTIVEERTTRPRVTLNLPGGERLEVTATTTDIPIRRSFEFQEDLGASRRQLLRRSATRARNLFVDRSDENDEDWTDDTHNLPEAIQRARRESRMRMSRRIAERQRRVQQQRVSSDENISTSIRLQSIRERIQSYTPDIRSAFHRAESLHEFRSILQNVAPITLQECEEELMALFTEFRNQLLQNWAIDRVRNTQEEALRLHREALERQERTAGRVFHRGTLRESITNYLNFNGEDGFLSRLWSGPALSDADEERHTQNIIDMIQEREERERDVVMKNLMNKTRAQQEEFEARAASLPEGYSASFDTTPKMKLDITKNGKEETIIVTDDDLAKTLEDIPVCCLCGAELGVGIPDDFTGISQKDRGVSFEGLVSKYKFHCPYQTLARPSMLDRDLSKRTFIASCGHAFCGRCFARIDNAKKKSKMPKKKLAQLKGSAHPDNYGPKLCPADSCKKLIRSRGRLKEVYF

- binding (GST-Esc2 (S. cerevisiae) [4]): binds
B2: Elg1-Flag (protein, UniProt Q12050 1-791)
chain: MKRHVSLSDILTGNKRKVRRQDALQITIDDENDTESGTFDARTAKHDDSSVIFLNHSVVKPIEAVSTNHKSAKEFLMTKRTKEKCDDDDDDLIVISDKSPKSETNCSKIALSQEHEDDISIISTSRIKSSLLNERASKIKNFLKHETTDTFKRLNSISKLNEIEPPLPLHQSIFPVGDKELSDRSVDIPLPFRTIPPLNHNFLPSDYESLKDKNSASCIPVRYQAPVLLGTNIKRNTTLTWPQLFKPVTLKQVLIEPKLKLRIKNWIETSFHTLEKPTLRNRLLNRINPNKQQGSGDELANFIVPDLEEDENLRPDFYRNGEANSSLSEFVPLMILHGNSIGKKTLIQTIMREIAGDDNSYQIYEVNSNMNRSKKDLLDILLDFTTTHYVKDSSKRKSDYGLVLFNDVDVLFKEHDRGYWAMISKLCEFSRRPLVLTCKDLSLVPSELIALASEQNSLFHTKKISTSTVYAFLTKYLKSLEIEVCDDWLRDVVKQNNADIRKCLMHLQFWCVDTEADLISSKNRLPVLTSTLGSSVKDISQLTDLLSINDVIGQATLNRSMVRQEIDSTTMTPEKVNTFQDQNLDDEMKLKFDYVIDYKLHLNDPNRQPLLPFELNIYQHIQEQLEARYSYVREANHRLDNEYLVNRFKKMTESTLNFLASRIPKYDHLQSARRTRNSKKISDILNQFKGIYNDETLNENAEIDLLSATTQQIKAEINPFVFEIAKSDANVKNENKQIFELHSENVSERRYKDLVYQLSQEGVLKNVWFNADPSIVVRKWEHLHSGFSKNK

- binding [5]: binds
B3: Esc2^Δ154–198 (protein, UniProt Q06340)
chain: MTGDSRSISEPSINLDPDNTSFSDENSDDFFMDNSYDIDEIDHSDESNRQSVIVDSKVTVPPSKHSTLTLSDSEDSDAKEQHQSLSRSSSKNVNIEDITEPKPDKPSGRTRGRSVMKESVVEINSSESDLDEDKNFPRSRSRSRSSIRSISPAVYNIKFLSKLEGTINKAVQVKVLGKYEFSKILPAALDGLMKSYKIPKVMKDIYKVENVTLYWNNAKLLTFMTCNSLHIPQDFENEVSDIDVTIVSKEYEKNFEATLESKLKEEEAALLIKERQEMERKLEKKRNEQEESEYREFESELKNVEETQEIKENDTVMNTKLLQEGGSLSGNSSSMEEVMRIALMGQDNKKIYVHVRRSTPFSKIAEYYRIQKQLPQKTRVKLLFDHDELDMNECIADQDMEDEDMVDVIID

- binding [6]: binds
B4: Esc2 (purified recombinant Esc2 protein without the GST tag) (protein, UniProt Q06340 1-456)
chain: MTGDSRSISEPSINLDPDNTSFSDENSDDFFMDNSYDIDEIDHSDESNRQSVIVDSKVTVPPSKHSTLTLSDSEDSDAKEQHQSLSRSSSKNVNIEDITEPKPDKPSGRTRGRSVMKESVVEINSSESDLDEDKNFPRSRSRSRSSIRSISPAGKYKRQKSSLLYTYDENDDFFKELAKEAKKSTTISKESTPDQRKRVYNIKFLSKLEGTINKAVQVKVLGKYEFSKILPAALDGLMKSYKIPKVMKDIYKVENVTLYWNNAKLLTFMTCNSLHIPQDFENEVSDIDVTIVSKEYEKNFEATLESKLKEEEAALLIKERQEMERKLEKKRNEQEESEYREFESELKNVEETQEIKENDTVMNTKLLQEGGSLSGNSSSMEEVMRIALMGQDNKKIYVHVRRSTPFSKIAEYYRIQKQLPQKTRVKLLFDHDELDMNECIADQDMEDEDMVDVIID
